Reference: the supplement of paper PMC10060354, “Discovery of a small molecule ligand of FRS2 that inhibits invasion and tumor growth” (Cellular Oncology, 2022)
Single values are uncertain, as repeats are few or missing.

Amino acid sequences for entries named in this document (tags omitted). A change or cut given only in a name is not applied to a line headed by its entry.
UniProt Q9BTC8: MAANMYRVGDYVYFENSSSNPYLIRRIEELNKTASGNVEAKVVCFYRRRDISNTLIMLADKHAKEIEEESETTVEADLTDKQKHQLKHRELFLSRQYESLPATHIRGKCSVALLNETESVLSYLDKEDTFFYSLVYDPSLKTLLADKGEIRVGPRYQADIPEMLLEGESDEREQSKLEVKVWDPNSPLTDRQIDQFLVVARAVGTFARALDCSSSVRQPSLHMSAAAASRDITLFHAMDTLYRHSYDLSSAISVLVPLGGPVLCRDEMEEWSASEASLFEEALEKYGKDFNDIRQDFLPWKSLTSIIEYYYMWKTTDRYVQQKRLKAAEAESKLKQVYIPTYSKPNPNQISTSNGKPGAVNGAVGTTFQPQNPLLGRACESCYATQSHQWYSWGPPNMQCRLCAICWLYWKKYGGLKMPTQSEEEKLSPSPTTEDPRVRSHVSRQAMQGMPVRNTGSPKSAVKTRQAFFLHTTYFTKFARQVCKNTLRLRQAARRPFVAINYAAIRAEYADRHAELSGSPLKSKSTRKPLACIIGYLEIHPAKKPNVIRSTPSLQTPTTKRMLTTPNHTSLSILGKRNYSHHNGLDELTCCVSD
UniProt Q7Z3B4: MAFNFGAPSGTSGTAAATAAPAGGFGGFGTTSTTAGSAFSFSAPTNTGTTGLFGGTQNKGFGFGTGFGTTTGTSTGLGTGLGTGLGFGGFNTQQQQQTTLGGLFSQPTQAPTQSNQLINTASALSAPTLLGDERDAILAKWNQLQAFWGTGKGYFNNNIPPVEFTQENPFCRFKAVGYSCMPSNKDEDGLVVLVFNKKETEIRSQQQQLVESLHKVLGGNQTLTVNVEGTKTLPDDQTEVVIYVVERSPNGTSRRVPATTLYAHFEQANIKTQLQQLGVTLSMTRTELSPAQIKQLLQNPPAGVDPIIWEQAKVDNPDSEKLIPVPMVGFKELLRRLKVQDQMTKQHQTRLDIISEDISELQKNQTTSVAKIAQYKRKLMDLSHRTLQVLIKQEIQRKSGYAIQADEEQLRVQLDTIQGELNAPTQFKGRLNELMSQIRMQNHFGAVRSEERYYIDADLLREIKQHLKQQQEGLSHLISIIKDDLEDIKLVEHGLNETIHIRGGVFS
UniProt Q56VL3: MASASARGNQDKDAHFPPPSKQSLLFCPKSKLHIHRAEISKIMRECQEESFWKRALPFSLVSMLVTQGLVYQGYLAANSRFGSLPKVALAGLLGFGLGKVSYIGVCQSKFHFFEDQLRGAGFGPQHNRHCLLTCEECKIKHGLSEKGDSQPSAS
UniProt O95466, whole entry: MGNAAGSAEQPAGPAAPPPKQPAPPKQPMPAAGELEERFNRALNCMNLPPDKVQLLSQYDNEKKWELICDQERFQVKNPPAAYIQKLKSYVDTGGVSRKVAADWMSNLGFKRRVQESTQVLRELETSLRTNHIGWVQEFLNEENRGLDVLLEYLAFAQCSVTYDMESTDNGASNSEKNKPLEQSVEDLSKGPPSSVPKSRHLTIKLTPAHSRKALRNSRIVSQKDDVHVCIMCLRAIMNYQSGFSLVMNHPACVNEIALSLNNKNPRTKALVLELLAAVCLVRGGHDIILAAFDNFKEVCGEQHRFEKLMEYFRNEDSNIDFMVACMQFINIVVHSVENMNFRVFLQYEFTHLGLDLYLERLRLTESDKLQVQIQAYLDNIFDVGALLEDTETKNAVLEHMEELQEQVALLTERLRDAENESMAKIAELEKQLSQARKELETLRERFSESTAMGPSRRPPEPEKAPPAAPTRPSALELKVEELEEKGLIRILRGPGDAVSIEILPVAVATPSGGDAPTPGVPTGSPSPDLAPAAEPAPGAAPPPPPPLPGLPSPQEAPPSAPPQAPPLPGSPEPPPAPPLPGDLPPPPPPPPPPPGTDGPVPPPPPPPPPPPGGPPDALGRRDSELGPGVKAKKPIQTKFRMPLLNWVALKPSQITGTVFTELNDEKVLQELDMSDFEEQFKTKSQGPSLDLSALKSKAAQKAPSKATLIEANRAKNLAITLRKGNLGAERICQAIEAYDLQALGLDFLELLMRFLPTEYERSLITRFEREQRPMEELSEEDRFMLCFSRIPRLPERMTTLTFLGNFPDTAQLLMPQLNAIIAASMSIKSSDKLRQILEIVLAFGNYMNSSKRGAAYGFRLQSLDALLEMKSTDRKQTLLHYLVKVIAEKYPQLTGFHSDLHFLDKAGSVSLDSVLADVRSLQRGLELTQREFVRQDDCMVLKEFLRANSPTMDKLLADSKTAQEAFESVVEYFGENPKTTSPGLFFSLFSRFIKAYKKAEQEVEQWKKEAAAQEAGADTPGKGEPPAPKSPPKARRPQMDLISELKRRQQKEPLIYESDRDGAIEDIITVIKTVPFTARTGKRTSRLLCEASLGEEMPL
UniProt P30086: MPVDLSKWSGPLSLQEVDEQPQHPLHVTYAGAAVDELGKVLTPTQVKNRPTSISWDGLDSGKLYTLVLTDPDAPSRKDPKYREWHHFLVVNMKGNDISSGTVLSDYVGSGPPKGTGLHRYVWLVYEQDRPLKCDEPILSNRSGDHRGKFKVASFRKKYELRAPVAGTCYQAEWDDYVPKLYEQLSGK
UniProt Q9H788: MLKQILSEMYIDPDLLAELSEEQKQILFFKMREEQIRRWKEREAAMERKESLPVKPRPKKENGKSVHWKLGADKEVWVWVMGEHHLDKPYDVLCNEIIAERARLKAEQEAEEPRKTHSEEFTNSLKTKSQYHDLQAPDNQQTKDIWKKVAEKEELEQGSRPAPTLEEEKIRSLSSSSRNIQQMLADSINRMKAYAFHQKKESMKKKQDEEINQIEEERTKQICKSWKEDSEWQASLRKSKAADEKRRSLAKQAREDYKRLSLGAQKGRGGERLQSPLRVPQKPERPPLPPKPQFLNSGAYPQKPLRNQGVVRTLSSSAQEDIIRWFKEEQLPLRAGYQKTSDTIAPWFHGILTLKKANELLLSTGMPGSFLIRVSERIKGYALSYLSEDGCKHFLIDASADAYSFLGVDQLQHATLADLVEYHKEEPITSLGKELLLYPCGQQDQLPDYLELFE
UniProt O14579: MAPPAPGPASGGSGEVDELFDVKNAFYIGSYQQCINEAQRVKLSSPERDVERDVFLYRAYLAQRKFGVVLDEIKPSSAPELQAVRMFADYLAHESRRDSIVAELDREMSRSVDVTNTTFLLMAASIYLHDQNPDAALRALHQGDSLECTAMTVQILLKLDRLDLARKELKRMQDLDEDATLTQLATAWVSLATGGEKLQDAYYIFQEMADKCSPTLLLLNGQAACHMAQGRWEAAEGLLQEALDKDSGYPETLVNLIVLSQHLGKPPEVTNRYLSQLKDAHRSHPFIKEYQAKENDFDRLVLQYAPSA
UniProt O15182: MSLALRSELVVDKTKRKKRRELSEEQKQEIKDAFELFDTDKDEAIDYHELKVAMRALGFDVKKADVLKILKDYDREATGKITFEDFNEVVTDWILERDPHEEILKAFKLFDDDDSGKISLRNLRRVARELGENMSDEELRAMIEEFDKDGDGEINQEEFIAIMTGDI
UniProt Q8N8Q9: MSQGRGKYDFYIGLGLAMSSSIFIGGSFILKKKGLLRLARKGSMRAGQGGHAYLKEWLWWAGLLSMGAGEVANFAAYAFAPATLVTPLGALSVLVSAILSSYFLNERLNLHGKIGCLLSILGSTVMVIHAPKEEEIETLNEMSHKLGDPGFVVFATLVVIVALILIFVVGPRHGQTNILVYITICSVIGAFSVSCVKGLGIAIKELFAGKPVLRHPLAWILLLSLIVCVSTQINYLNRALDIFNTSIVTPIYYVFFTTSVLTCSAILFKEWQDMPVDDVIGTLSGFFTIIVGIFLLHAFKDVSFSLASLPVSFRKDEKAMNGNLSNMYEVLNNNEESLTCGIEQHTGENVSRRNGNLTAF
UniProt Q8WWV3: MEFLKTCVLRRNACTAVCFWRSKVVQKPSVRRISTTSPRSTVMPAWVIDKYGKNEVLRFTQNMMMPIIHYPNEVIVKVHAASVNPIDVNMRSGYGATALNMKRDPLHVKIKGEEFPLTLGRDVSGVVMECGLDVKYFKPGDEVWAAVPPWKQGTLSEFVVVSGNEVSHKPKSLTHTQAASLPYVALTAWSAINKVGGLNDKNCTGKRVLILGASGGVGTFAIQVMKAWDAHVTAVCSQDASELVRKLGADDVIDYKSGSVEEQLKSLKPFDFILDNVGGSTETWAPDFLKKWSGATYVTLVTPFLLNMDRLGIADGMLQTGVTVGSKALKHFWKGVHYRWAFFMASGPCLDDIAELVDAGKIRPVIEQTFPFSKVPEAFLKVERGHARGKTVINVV
UniProt Q6PKH6: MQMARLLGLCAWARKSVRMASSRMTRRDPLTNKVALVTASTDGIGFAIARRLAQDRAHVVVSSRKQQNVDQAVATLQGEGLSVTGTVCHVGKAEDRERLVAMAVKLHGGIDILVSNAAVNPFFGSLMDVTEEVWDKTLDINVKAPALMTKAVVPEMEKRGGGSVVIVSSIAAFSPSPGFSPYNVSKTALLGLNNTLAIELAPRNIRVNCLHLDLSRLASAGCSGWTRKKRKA
UniProt Q9BYN0: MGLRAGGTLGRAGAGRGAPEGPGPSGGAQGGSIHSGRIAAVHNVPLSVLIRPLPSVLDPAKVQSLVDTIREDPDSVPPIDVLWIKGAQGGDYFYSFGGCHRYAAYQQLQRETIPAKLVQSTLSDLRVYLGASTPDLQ
UniProt Q9NP79: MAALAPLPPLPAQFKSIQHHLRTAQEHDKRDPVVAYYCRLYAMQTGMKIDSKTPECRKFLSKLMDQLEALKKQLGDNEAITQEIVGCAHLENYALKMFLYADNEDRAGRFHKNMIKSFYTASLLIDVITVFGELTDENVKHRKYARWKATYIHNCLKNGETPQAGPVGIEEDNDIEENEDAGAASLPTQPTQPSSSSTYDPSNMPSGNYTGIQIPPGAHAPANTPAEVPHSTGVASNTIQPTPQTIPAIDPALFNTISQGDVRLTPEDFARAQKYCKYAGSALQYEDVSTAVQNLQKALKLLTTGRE
UniProt O00115: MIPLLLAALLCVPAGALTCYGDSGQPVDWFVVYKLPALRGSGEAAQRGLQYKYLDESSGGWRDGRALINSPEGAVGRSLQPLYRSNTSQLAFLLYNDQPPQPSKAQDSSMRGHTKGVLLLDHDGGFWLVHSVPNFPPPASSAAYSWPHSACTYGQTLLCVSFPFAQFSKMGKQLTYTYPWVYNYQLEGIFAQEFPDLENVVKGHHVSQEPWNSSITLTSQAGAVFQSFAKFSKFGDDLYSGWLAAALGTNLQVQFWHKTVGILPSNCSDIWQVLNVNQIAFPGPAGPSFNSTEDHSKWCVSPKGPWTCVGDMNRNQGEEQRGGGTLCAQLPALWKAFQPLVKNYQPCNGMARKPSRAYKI
UniProt Q5TAP6: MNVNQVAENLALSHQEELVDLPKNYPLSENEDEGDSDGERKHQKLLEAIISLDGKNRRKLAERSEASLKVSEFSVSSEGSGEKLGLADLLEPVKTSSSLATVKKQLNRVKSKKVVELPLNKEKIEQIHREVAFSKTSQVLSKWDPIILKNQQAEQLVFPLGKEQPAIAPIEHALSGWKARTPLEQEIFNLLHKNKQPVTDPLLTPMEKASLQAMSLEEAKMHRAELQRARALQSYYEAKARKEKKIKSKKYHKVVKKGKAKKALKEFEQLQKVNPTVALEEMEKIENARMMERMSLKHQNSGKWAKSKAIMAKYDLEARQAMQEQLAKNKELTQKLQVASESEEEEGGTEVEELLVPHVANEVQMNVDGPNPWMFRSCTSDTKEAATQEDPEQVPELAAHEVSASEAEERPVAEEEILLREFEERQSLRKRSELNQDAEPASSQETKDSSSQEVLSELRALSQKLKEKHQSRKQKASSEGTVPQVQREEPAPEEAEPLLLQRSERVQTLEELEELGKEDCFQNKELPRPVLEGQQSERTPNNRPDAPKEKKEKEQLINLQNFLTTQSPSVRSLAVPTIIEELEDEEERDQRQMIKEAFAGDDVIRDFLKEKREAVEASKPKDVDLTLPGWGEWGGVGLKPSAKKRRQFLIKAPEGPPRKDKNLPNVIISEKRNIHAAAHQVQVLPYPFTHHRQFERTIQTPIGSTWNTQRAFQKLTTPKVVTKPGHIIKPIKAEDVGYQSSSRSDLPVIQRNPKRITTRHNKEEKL
UniProt Q13057: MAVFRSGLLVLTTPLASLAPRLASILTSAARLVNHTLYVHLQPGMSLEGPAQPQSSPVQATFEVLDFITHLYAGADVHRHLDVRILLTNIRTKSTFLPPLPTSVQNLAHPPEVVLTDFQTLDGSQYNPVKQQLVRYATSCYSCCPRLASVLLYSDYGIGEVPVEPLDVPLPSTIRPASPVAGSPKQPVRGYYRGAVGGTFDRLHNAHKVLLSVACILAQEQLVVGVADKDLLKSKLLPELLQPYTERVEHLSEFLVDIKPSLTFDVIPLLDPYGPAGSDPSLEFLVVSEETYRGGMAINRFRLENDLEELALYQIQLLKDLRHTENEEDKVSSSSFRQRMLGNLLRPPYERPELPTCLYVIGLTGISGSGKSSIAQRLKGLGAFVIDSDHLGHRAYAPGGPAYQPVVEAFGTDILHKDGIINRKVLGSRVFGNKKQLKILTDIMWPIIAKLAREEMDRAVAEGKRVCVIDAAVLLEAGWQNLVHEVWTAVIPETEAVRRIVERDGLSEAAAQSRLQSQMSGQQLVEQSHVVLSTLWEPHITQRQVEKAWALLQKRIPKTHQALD

Compound: [O-][N+](C(C1=C(C(O)=C2)NC(C(C=C3)=CC=C3Cl)C4C1C=CC4)=C2Cl)=O
Assay: melting temperature shift (compound 7 minus DMSO); higher = compound stabilises the protein
Conditions: 10 µM
Method: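 Thermal proteome profiling (TMT mass spectrometry) in intact DAOY medulloblastoma cells or DAOY lysates treated with 10 µM compound 7 or DMSO, heated at 10 temperatures from 40.5 to 73.8 °C for 3 min. Melting curves were fitted with the Bioconductor TPP package, and the melting point difference between compound and vehicle is reported per protein (single curve per condition).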

[1] = system: DAOY cell lysate, treatment time: 20 min, 4 °C
[2] = system: intact DAOY cells, treatment time: 90 min, 37 °C

| Target | melting temperature shift [1] [°C] | melting temperature shift [2] [°C] |
| --- | --- | --- |
| MTA3 (UniProt Q9BTC8) | 0.207 | -0.95 |
| CHURC1 (UniProt Q8WUH1) | 0.753 | 0.509 |
| UNC119B (UniProt A6NIH7) | -0.56 | 1.53 |
| GTF2E1 (UniProt P29083) | -0.222 | -1.53 |
| MADD (UniProt Q8WXG6) | -0.669 | -1.31 |
| NUP54 (UniProt Q7Z3B4) | -0.569 | 1.29 |
| NDUFS1 (UniProt P28331) | 1.4 | -0.853 |
| DDAH2 (UniProt O95865) | 0.246 | 0.543 |
| OCIAD2 (UniProt Q56VL3) | 1.99 | 0.0232 |
| UniProt Q9H9Q4 | 0.585 | – |
| UniProt Q9HCP0 | – | 1.65 |
| RABEP2 (UniProt Q9H5N1) | -0.684 | -0.33 |
| UniProt Q7L266 | -1.09 | 1.42 |
| FMNL1 (UniProt O95466) | -0.769 | – |
| PEBP1 (UniProt P30086) | -0.789 | -0.77 |
| NXN (UniProt Q6DKJ4) | -0.699 | -0.0642 |
| PRDX2 (UniProt P32119) | -0.558 | 0.541 |
| PPP2R5C (UniProt Q13362) | -0.538 | -0.28 |
| ACOT7 (UniProt O00154) | -0.103 | 0.369 |
| TBCEL (UniProt Q5QJ74) | -1.69 | -0.207 |
| TRMT10C (UniProt Q7L0Y3) | 0.333 | -1.85 |
| UniProt Q6UXS9 | – | 1.07 |
| UniProt Q5T442 | 0.302 | – |
| CCT2 (UniProt P78371) | -0.343 | -0.441 |

Looked up one by one from above, two records:

| Target | melting temperature shift [1] [°C] | melting temperature shift [2] [°C] |
| --- | --- | --- |
| TBCEL (UniProt Q5QJ74) | -1.69 | -0.207 |
| CCT2 (UniProt P78371) | -0.343 | -0.441 |

Later entries.

| Target | melting temperature shift [1] [°C] | melting temperature shift [2] [°C] |
| --- | --- | --- |
| SH2D4A (UniProt Q9H788) | 0.999 | -0.0857 |
| UniProt Q9NW81 | 3.03 | -0.564 |
| ERCC3 (UniProt P19447) | -0.682 | -3.01 |
| UniProt P31146 | -0.657 | 0.169 |
| UniProt Q16825 | 0.253 | – |
| UniProt P60059 | 1.71 | 0.436 |
| NIPSNAP1 (UniProt Q9BPW8) | -0.582 | 0.581 |
| UniProt Q71UI9 | 1.49 | -0.686 |
| HSP90AB1 (UniProt P08238) | -0.348 | -0.356 |
| ZKSCAN1 (UniProt P17029) | 1.15 | -1.24 |
| COPE (UniProt O14579) | -0.563 | 0.00658 |
| ACOT9 (UniProt Q9Y305) | 0.241 | 0.442 |
| CETN3 (UniProt O15182) | -0.461 | 1.21 |
| VRK2 (UniProt Q86Y07) | -1.06 | -0.666 |
| NIPA2 (UniProt Q8N8Q9) | – | -0.499 |
| UniProt Q96GD4 | -0.618 | – |
| GTF2A1 (UniProt P52655) | 1.54 | – |
| SNX27 (UniProt Q96L92) | -0.0615 | -0.0854 |
| UniProt Q7Z7L9 | -1.84 | – |
| EFTUD2 (UniProt Q15029) | -0.128 | 2.56 |
| UniProt Q5BKT4 | – | -0.655 |
| UniProt Q9BRY0 | 3.98 | – |
| TIMM17B (UniProt O60830) | 0.0449 | -2.58 |
| RBMS2 (UniProt Q15434) | 0.552 | -0.0191 |

| Target | melting temperature shift [1] [°C] | melting temperature shift [2] [°C] |
| --- | --- | --- |
| UniProt Q9Y5V3 | -0.356 | 0.407 |
| SF3A2 (UniProt Q15428) | 0.114 | 1.31 |
| PTGR2 (UniProt Q8N8N7) | -1.46 | – |
| SPNS1 (UniProt Q9H2V7) | 7.51 | – |
| UniProt Q9BXX3 | – | -0.753 |
| MRPS10 (UniProt P82664) | -0.151 | -1.19 |
| RTN4IP1 (UniProt Q8WWV3) | -0.47 | – |
| UniProt Q6PKH6 | – | -0.613 |
| SAMHD1 (UniProt Q9Y3Z3) | -0.953 | -1.27 |
| SRXN1 (UniProt Q9BYN0) | -0.26 | – |
| UniProt Q12872 | -0.878 | -1.62 |
| UniProt Q56UQ5 | – | 1.01 |
| UniProt P51587 | 0.079 | – |
| VTA1 (UniProt Q9NP79) | -0.538 | 0.0421 |
| DNASE2 (UniProt O00115) | -4.03 | – |
| UniProt Q71U36 | 0.289 | -0.497 |
| UniProt Q9BTM1 | – | 0.652 |
| UniProt Q8N8D1 | – | -1.46 |
| MIA3 (UniProt Q5JRA6) | 0.836 | -0.5 |
| BRD4 (UniProt O60885) | -0.5 | 0.369 |
| UniProt Q9H4E5 | – | -2.07 |
| ATRX (UniProt P46100) | 0.899 | 0.474 |
| UniProt Q9UBR5 | 2.93 | – |
| UniProt P29034 | -2.44 | 9.29 |

For convenience, part of the list above:

| Target | melting temperature shift [1] [°C] | melting temperature shift [2] [°C] |
| --- | --- | --- |
| UniProt Q9BTM1 | – | 0.652 |
| UniProt Q8N8D1 | – | -1.46 |

Next entries.

| Target | melting temperature shift [1] [°C] | melting temperature shift [2] [°C] |
| --- | --- | --- |
| NCAPD2 (UniProt Q15021) | -0.226 | -0.807 |
| UniProt Q5TAP6 | – | -1.54 |
| AKT3 (UniProt Q9Y243) | – | -0.84 |
| MTX2 (UniProt O75431) | 0.587 | 1.25 |
| UniProt P39880 | 1.3 | -1.12 |
| GLB1 (UniProt P16278) | 0.677 | -2.22 |
| UniProt Q15274 | – | -3.29 |
| NRAS (UniProt P01111) | 1.07 | 1.22 |
| NSMCE4A (UniProt Q9NXX6) | 2.66 | -0.913 |
| POLR2E (UniProt P19388) | -0.11 | 0.638 |
| TWF1 (UniProt Q12792) | -0.427 | 0.869 |
| UniProt Q02338 | 0.799 | 0.963 |
| CC2D1B (UniProt Q5T0F9) | 0.786 | -0.534 |
| UniProt Q9UNT1 | -2.59 | – |
| COASY (UniProt Q13057) | -1.88 | -0.521 |
| LSM3 (UniProt P62310) | -0.128 | -0.733 |
| CCDC86 (UniProt Q9H6F5) | 0.281 | -0.781 |
| SPC24 (UniProt Q8NBT2) | -0.45 | 0.567 |
| UniProt O14576 | -1.85 | – |
| UniProt P53677 | -1.38 | – |
| UniProt Q8NAM6 | – | 1.86 |
